Results as given in paper PMC4339124.
No constants are given. Whether binding was seen depends on the method and setting. Binding seen in cells or lysates may run through a third protein. A yes stands for co-enrichment or nearness to the bait. Other partners may have been found. Where a sequence is shown, tags or fusion partners need not be part of it.

By UniProt entry, the sequences of proteins in these tests, tags left out.
UniProt P31146: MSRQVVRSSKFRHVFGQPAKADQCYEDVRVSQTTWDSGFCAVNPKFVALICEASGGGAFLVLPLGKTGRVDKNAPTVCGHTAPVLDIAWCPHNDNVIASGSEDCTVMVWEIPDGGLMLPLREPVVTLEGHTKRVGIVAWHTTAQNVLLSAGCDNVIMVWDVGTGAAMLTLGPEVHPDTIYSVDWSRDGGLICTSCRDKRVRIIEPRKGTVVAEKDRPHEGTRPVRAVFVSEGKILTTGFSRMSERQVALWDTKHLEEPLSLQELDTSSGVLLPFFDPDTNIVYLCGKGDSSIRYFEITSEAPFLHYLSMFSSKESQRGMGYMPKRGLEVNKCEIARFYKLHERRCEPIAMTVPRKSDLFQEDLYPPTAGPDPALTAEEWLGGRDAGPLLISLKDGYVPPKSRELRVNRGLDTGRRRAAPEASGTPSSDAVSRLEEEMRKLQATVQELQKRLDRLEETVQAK
UniProt Q9NPA3: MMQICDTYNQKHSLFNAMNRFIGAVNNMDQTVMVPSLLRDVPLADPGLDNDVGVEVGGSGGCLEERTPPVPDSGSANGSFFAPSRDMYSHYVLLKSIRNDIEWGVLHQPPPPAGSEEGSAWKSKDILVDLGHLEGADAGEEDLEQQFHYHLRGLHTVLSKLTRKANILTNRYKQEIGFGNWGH

Target: T1, THEMIS tagged with One-STrEP-Tag (THEMIS-Strep), wild type (human) (UniProt Q8N1K5)
T1 sequence: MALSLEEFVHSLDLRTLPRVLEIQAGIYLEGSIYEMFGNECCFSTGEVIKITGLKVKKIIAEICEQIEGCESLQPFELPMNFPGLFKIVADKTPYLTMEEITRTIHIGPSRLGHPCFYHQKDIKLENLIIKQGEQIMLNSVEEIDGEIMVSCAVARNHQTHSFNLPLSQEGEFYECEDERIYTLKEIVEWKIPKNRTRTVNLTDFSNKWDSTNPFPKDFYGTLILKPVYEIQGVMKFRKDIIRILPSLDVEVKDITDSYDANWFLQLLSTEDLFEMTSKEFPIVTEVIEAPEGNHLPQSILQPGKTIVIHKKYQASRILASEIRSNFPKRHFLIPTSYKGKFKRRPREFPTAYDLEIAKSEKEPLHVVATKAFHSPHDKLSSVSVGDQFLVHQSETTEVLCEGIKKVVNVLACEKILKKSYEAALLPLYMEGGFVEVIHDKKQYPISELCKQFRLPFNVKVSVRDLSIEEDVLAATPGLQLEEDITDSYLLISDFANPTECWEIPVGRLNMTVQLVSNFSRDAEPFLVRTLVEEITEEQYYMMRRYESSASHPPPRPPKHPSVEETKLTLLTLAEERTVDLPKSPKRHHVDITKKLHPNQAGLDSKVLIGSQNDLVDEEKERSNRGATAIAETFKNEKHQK
Assay: affinity purification with mass spectrometry; THEMIS-Strep expressed in Jurkat cells, resting or anti-CD3 mAb-stimulated; pulled down with Streptactin-Sepharose beads, eluted with biotin, nanoLC-MS/MS; biotin-blocked beads as background

## COR1A_HUMAN (coronin-1A), endogenous (from UniProt P31146 1-461)
  binding: binds

## M1IP1_HUMAN (Mid1-interacting protein 1), endogenous (from UniProt Q9NPA3 1-183)
  binding: binds
